Reference: the supplement of paper PMC10060354, “Discovery of a small molecule ligand of FRS2 that inhibits invasion and tumor growth” (Cellular Oncology, 2022)
Repeats are few or missing, and single values can be far off.

The chains behind the UniProt entries cited, without tags or fusion partners. Where a name states a change or a piece, a line headed by the entry shows the natural chain unless it says otherwise.
UniProt P56182: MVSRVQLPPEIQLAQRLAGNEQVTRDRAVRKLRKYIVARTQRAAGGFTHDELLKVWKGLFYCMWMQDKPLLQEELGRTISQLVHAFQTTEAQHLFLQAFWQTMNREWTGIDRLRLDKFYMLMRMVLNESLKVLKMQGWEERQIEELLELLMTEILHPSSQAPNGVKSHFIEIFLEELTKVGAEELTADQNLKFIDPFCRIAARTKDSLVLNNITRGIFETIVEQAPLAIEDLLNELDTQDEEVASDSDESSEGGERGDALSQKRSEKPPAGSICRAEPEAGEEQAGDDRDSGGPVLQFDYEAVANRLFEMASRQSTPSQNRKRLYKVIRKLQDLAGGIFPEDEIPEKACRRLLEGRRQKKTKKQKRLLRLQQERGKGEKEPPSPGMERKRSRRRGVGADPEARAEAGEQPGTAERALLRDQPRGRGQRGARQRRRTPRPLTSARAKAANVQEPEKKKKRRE
UniProt Q86W50: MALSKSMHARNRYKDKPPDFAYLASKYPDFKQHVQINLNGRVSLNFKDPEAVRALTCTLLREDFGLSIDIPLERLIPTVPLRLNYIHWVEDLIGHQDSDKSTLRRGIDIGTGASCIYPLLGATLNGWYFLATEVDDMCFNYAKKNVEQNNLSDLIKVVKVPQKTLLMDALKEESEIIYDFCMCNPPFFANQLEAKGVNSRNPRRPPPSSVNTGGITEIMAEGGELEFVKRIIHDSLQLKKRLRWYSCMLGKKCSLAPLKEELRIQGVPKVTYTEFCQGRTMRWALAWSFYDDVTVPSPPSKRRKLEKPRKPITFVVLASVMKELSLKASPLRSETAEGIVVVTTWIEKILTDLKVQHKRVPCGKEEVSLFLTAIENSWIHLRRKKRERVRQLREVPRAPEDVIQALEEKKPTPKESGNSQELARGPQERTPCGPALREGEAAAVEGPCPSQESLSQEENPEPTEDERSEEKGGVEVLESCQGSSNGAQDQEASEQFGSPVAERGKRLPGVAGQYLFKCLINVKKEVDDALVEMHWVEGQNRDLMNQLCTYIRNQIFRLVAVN
UniProt Q6SJ93: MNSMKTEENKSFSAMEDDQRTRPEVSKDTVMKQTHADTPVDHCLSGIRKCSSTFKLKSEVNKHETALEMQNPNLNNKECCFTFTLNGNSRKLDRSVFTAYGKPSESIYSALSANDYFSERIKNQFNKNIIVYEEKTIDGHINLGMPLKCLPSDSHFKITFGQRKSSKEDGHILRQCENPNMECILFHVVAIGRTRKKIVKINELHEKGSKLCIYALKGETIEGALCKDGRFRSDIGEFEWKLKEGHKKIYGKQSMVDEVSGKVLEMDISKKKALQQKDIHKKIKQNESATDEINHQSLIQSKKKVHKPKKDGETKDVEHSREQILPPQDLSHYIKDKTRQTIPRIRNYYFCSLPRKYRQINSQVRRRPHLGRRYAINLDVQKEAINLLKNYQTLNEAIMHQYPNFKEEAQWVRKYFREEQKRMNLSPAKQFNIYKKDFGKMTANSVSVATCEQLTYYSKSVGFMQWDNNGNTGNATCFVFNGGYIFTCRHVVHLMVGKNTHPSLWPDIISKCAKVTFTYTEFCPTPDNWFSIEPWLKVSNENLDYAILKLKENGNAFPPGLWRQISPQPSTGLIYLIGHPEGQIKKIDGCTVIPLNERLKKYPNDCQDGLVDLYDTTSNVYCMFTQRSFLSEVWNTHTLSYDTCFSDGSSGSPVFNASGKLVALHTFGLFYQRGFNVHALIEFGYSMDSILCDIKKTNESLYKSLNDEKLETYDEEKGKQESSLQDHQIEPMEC
UniProt Q9NZ01: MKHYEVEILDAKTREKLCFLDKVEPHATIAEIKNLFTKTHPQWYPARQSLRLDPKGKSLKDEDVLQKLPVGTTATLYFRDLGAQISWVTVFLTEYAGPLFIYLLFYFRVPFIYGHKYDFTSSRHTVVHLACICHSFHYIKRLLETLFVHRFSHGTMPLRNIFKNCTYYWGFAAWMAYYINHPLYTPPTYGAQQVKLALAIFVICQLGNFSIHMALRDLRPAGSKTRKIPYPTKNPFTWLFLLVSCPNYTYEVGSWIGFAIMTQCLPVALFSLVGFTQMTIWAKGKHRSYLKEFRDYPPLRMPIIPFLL
UniProt Q9P0N9: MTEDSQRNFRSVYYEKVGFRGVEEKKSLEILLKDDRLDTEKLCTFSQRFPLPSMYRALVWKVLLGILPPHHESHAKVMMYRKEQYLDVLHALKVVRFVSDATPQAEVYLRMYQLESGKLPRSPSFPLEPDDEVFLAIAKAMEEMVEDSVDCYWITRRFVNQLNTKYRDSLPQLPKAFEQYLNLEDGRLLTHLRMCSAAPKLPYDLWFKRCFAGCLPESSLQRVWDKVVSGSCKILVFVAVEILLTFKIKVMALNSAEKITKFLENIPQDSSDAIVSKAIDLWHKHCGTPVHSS
UniProt P52564: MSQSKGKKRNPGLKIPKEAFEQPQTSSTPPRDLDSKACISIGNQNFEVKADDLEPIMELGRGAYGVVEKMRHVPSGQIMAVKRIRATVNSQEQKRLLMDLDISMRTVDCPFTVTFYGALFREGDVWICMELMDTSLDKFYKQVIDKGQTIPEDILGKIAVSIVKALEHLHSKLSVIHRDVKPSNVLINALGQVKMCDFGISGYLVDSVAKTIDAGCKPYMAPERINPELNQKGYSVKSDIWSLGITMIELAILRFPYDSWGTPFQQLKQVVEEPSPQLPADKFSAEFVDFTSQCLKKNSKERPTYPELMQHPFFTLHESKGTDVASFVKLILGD
UniProt Q5VTU8: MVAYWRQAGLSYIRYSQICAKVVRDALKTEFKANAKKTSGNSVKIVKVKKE
UniProt O00144: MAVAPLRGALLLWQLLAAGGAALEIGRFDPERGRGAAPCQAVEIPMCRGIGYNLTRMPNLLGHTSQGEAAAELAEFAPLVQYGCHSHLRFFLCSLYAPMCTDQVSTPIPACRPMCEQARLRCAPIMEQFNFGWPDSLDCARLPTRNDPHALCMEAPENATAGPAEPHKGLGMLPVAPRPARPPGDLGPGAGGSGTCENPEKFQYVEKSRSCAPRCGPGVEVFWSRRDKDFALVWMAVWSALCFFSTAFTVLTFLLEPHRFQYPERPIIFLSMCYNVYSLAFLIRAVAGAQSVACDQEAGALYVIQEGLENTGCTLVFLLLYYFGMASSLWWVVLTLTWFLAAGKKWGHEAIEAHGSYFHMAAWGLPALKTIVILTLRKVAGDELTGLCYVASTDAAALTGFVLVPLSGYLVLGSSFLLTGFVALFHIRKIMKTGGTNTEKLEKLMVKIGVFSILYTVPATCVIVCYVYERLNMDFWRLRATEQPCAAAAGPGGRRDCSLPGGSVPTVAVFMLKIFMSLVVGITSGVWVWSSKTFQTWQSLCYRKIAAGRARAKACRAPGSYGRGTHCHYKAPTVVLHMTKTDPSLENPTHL
UniProt Q9UIC8: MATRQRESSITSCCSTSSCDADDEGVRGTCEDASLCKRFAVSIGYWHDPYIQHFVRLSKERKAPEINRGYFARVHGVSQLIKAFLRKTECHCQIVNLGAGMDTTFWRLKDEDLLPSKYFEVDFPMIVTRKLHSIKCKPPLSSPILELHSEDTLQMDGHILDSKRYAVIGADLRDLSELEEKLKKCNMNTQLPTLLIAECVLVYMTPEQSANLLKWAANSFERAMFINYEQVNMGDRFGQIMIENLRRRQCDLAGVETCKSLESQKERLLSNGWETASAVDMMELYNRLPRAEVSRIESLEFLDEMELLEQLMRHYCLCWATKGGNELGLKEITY
UniProt Q6XZF7: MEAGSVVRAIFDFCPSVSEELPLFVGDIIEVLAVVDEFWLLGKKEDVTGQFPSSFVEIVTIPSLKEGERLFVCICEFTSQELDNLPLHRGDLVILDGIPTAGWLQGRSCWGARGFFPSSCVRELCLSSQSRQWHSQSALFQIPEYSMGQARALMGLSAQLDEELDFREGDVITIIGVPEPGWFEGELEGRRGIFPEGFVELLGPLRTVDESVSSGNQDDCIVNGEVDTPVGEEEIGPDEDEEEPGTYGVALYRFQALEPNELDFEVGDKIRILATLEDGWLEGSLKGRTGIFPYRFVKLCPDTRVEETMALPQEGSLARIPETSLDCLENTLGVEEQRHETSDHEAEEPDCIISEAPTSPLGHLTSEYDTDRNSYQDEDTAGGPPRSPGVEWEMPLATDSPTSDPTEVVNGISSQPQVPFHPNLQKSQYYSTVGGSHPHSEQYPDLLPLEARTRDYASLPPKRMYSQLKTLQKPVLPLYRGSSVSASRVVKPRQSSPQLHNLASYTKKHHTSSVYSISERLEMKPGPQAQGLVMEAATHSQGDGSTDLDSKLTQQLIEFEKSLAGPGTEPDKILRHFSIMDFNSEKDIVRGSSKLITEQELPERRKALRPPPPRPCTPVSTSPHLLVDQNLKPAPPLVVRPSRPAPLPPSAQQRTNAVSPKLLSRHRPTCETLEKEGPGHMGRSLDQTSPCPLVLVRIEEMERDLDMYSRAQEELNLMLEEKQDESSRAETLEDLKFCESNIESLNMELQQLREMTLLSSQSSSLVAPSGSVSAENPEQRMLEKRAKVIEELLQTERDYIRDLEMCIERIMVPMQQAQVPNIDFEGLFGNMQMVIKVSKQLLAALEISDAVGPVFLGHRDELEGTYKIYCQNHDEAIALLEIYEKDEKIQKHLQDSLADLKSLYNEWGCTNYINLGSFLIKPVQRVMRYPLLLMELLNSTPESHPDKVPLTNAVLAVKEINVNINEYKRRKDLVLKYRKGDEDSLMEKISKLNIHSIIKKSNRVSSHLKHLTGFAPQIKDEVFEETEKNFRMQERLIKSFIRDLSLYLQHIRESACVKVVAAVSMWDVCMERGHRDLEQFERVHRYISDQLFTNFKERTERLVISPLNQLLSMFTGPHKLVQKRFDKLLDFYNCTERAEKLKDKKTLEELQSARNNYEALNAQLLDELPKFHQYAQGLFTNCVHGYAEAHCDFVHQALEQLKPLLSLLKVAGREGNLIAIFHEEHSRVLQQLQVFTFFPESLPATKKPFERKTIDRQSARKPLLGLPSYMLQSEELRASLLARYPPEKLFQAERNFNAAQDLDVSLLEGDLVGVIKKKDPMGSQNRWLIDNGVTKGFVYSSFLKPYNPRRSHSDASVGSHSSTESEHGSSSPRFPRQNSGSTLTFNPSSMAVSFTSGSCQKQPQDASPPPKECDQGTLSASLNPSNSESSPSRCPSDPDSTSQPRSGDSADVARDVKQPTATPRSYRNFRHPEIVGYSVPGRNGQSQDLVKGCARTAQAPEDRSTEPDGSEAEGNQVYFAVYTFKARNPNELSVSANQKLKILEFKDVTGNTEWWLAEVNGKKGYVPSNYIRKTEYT
UniProt Q9H5V8, whole entry: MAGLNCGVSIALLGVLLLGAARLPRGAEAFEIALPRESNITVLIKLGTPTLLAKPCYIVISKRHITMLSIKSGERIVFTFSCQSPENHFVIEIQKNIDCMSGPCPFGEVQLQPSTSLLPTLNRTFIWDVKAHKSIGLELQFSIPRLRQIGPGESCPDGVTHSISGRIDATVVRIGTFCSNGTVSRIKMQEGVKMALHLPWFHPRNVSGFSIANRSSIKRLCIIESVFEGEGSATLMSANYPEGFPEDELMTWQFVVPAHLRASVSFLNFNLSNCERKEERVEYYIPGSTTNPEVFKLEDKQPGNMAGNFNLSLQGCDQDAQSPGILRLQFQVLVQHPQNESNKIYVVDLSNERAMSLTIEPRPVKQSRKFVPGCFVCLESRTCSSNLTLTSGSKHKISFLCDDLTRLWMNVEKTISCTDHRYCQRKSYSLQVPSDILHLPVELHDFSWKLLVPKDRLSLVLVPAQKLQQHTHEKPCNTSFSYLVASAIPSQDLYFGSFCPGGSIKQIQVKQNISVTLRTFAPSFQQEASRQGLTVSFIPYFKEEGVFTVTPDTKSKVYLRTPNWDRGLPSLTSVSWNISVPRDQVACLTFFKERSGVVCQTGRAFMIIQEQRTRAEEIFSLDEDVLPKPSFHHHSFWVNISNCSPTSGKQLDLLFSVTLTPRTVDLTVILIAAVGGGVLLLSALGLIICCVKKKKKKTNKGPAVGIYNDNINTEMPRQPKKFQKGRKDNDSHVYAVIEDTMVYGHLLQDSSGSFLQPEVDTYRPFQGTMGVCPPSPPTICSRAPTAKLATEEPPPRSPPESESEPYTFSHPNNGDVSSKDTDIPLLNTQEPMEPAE
UniProt Q8N5G0: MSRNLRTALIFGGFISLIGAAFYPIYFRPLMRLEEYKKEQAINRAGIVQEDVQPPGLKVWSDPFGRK
UniProt Q04837: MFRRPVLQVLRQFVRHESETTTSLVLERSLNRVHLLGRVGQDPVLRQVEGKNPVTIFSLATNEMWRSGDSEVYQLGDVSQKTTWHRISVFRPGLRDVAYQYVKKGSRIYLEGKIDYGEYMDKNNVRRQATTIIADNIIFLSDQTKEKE
UniProt Q8IUQ4: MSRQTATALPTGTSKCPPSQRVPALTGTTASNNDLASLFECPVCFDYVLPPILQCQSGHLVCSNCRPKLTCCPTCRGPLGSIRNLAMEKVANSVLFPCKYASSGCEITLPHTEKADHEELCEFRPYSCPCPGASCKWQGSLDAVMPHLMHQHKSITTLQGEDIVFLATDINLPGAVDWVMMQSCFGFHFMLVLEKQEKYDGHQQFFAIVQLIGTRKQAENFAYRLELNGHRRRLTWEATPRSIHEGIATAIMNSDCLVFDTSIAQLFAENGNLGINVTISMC

Compound: [O-][N+](C(C1=C(C(O)=C2)NC(C(C=C3)=CC=C3Cl)C4C1C=CC4)=C2Cl)=O
Assay: melting temperature shift (compound 7 minus DMSO); higher = compound stabilises the protein
Details: 10 µM
Description: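 Thermal proteome profiling (TMT mass spectrometry) in intact DAOY medulloblastoma cells or DAOY lysates treated with 10 µM compound 7 or DMSO, heated at 10 temperatures from 40.5 to 73.8 °C for 3 min. Melting curves were fitted with the Bioconductor TPP package, and the melting point difference between compound and vehicle is reported per protein (single curve per condition).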

[1] = system: DAOY cell lysate, treatment time: 20 min, 4 °C
[2] = system: intact DAOY cells, treatment time: 90 min, 37 °C

Target | melting temperature shift [1] | melting temperature shift [2]
RRP1 (UniProt P56182) | 0.811 °C | 3.08 °C
TARBP1 (UniProt Q13395) | -0.0842 °C | -0.24 °C
PHB (UniProt P35232) | 2.78 °C | 0.296 °C
THEM6 (UniProt Q8WUY1) | 1.41 °C | -0.214 °C
HMOX2 (UniProt P30519) | 1.55 °C | -0.0368 °C
UniProt Q9P2K5 | 0.229 °C | 0.18 °C
DICER1 (UniProt Q9UPY3) | -0.182 °C | -0.479 °C
RIPK1 (UniProt Q13546) | -0.447 °C | -1.17 °C
METTL16 (UniProt Q86W50) | -1.42 °C | -0.437 °C
AHSA1 (UniProt O95433) | -0.591 °C | 0.0615 °C
UniProt Q9H492 | – | 0.0355 °C
FAM111B (UniProt Q6SJ93) | -1.38 °C | -1.9 °C
TECR (UniProt Q9NZ01) | 0.271 °C | -2.05 °C
INTS3 (UniProt Q68E01) | -0.309 °C | 1.98 °C
UniProt O00213 | – | 0.0809 °C
EIF2B4 (UniProt Q9UI10) | 0.295 °C | -1.23 °C
ATP5H (UniProt O75947) | 0.813 °C | -2.08 °C
UniProt Q8NB78 | 0.38 °C | –
NUP214 (UniProt P35658) | -0.181 °C | -0.0457 °C
PCBD1 (UniProt P61457) | 1.16 °C | –
ZC3H15 (UniProt Q8WU90) | 0.205 °C | -0.256 °C
EXOC6 (UniProt Q8TAG9) | -2.8 °C | –
UniProt Q8WWM9 | -2.37 °C | –
UniProt Q8N3K9 | -0.835 °C | –

Target | melting temperature shift [1] | melting temperature shift [2]
SGPL1 (UniProt O95470) | 1.74 °C | 1.28 °C
TAP2 (UniProt Q03519) | 0.021 °C | -1.19 °C
UniProt Q9HBM6 | – | -1.4 °C
RBM22 (UniProt Q9NW64) | 0.42 °C | -0.796 °C
NAA38 (UniProt Q9BRA0) | -1.41 °C | -3.07 °C
SCD (UniProt O00767) | 1.54 °C | 0.0429 °C
UniProt Q12840 | -3.2 °C | –
PTPN11 (UniProt Q06124) | -0.19 °C | 0.147 °C
SMAP2 (UniProt Q8WU79) | 0.513 °C | 1.56 °C
UniProt Q9P0N9 | 1.63 °C | -0.802 °C
UniProt Q96QV6 | – | 2.66 °C
SHMT2 (UniProt P34897) | 0.295 °C | -0.625 °C
UniProt P45985 | -0.65 °C | -2.26 °C
LIG4 (UniProt P49917) | 1.5 °C | –
GBA (UniProt P04062) | 0.797 °C | 0.635 °C
SIRT1 (UniProt Q96EB6) | -0.132 °C | 0.691 °C
S100A11 (UniProt P31949) | – | 0.00738 °C
DSP (UniProt P15924) | -0.925 °C | –
UniProt P05062 | – | 1.56 °C
SLC43A2 (UniProt Q8N370) | 2.99 °C | –
UniProt P42167 | 1.44 °C | 0.808 °C
UniProt Q9NRW1 | 1.63 °C | -2.46 °C
ERI1 (UniProt Q8IV48) | -0.382 °C | -0.717 °C
UniProt A6QL63 | – | -0.5 °C

A run of entries taken from the entries so far:
Target | melting temperature shift [1] | melting temperature shift [2]
GBA (UniProt P04062) | 0.797 °C | 0.635 °C
SIRT1 (UniProt Q96EB6) | -0.132 °C | 0.691 °C

Further records.

Target | melting temperature shift [1] | melting temperature shift [2]
STX16 (UniProt O14662) | 0.786 °C | 0.428 °C
UniProt Q9P291 | -0.252 °C | -1.39 °C
ALAS1 (UniProt P13196) | – | -0.739 °C
PAFAH1B3 (UniProt Q15102) | -0.534 °C | 0.0765 °C
MAP2K6 (UniProt P52564) | – | -0.548 °C
LRRC8A (UniProt Q8IWT6) | 1.12 °C | 0.467 °C
YIF1B (UniProt Q5BJH7) | -1.43 °C | -0.0183 °C
NT5DC3 (UniProt Q86UY8) | 0.429 °C | -0.251 °C
MBOAT7 (UniProt Q96N66) | -0.778 °C | -5.25 °C
CPSF6 (UniProt Q16630) | -0.45 °C | -0.74 °C
UniProt Q13308 | 1.05 °C | 0.5 °C
CAD (UniProt P27708) | -0.526 °C | -0.411 °C
NCOA3 (UniProt Q9Y6Q9) | -1.09 °C | –
TBL1X (UniProt O60907) | -1.16 °C | 1.44 °C
UniProt Q13427 | 0.972 °C | -0.845 °C
KPNA2 (UniProt P52292) | -0.469 °C | 0.25 °C
WDR45 (UniProt Q9Y484) | 0.575 °C | –
ST13 (UniProt P50502) | -0.573 °C | -0.0129 °C
CHML (UniProt P26374) | -0.759 °C | 0.872 °C
UniProt Q5VTU8 | – | -1.25 °C
NAGLU (UniProt P54802) | -2.79 °C | –
EML2 (UniProt O95834) | -0.248 °C | 0.504 °C
UniProt P57723 | – | -2.02 °C
UniProt P01112 | 2.1 °C | 0.0305 °C

An excerpt of these results, tab-delimited.
Target	melting temperature shift [1]	melting temperature shift [2]
LRRC8A (UniProt Q8IWT6)	1.12 °C	0.467 °C
YIF1B (UniProt Q5BJH7)	-1.43 °C	-0.0183 °C
NT5DC3 (UniProt Q86UY8)	0.429 °C	-0.251 °C
MBOAT7 (UniProt Q96N66)	-0.778 °C	-5.25 °C
CPSF6 (UniProt Q16630)	-0.45 °C	-0.74 °C
UniProt Q13308	1.05 °C	0.5 °C
CAD (UniProt P27708)	-0.526 °C	-0.411 °C

(cont.)

Target | melting temperature shift [1] | melting temperature shift [2]
UniProt Q8WYQ5 | 1.05 °C | 0.0414 °C
NUDT9 (UniProt Q9BW91) | 0.723 °C | -0.783 °C
UniProt P50895 | -0.95 °C | –
UniProt P40967 | 1.33 °C | –
UniProt Q7Z745 | – | -2.21 °C
O15320 (UniProt Q96PC5) | 1.15 °C | -0.443 °C
UniProt O00144 | – | 1.93 °C
UniProt O43731 | -0.249 °C | –
ALDOC (UniProt P09972) | -0.832 °C | 0.425 °C
SHC1 (UniProt P29353) | -0.0622 °C | 0.731 °C
MAP7D1 (UniProt Q3KQU3) | -0.0135 °C | -0.0392 °C
LCMT1 (UniProt Q9UIC8) | -0.454 °C | -0.524 °C
DNMBP (UniProt Q6XZF7) | 0.719 °C | 0.598 °C
RASAL2 (UniProt Q9UJF2) | 2.65 °C | -2.44 °C
UniProt Q00266 | – | -2.02 °C
MTHFD2 (UniProt P13995) | 1.27 °C | -1.03 °C
UniProt Q9H496 | -0.203 °C | –
MRPL38 (UniProt Q96DV4) | 1 °C | –
UniProt Q14141 | -0.167 °C | -0.263 °C
UniProt Q9Y6X5 | 2.05 °C | –
RPS25 (UniProt P62851) | 0.725 °C | -0.93 °C
AMFR (UniProt Q9UKV5) | 2.6 °C | –
NFS1 (UniProt Q9Y697) | 0.22 °C | -0.139 °C
UniProt Q9H5V8 | -0.561 °C | 0.898 °C

Target | melting temperature shift [1] | melting temperature shift [2]
ARF5 (UniProt P84085) | 0.0398 °C | -2.01 °C
HNRNPH1 (UniProt P31943) | 0.424 °C | -0.621 °C
UniProt Q8N5G0 | 2.1 °C | –
UniProt P00846 | 0.412 °C | -0.692 °C
ALDH3A2 (UniProt P51648) | 0.637 °C | 2.21 °C
SMG8 (UniProt Q8ND04) | -1.5 °C | 0.858 °C
TRAPPC1 (UniProt Q9Y5R8) | 0.137 °C | 1.2 °C
DCTN3 (UniProt O75935) | -0.825 °C | 0.416 °C
UniProt P07199 | 1.67 °C | –
SSBP1 (UniProt Q04837) | -3.73 °C | –
UniProt Q8IUQ4 | -3.7 °C | –
MRPS22 (UniProt P82650) | 0.258 °C | -0.605 °C
SPATS2L (UniProt Q9NUQ6) | 0.216 °C | 1.71 °C
RFC2 (UniProt P35250) | -0.17 °C | -1.7 °C
CPNE1 (UniProt Q99829) | -0.36 °C | 0.445 °C
CGGBP1 (UniProt Q9UFW8) | 0.29 °C | -2.88 °C
TWF1 (UniProt Q12792) | -0.427 °C | 0.869 °C
CDC42 (UniProt P60953) | 0.349 °C | -0.549 °C
UniProt Q5DJT8 | – | 1.32 °C
RPS6KA6 (UniProt Q9UK32) | – | 0.105 °C
